Measured values published in paper PMC8759291.

Amino acid sequences for entries named in this document (tags omitted).
UniProt O00425: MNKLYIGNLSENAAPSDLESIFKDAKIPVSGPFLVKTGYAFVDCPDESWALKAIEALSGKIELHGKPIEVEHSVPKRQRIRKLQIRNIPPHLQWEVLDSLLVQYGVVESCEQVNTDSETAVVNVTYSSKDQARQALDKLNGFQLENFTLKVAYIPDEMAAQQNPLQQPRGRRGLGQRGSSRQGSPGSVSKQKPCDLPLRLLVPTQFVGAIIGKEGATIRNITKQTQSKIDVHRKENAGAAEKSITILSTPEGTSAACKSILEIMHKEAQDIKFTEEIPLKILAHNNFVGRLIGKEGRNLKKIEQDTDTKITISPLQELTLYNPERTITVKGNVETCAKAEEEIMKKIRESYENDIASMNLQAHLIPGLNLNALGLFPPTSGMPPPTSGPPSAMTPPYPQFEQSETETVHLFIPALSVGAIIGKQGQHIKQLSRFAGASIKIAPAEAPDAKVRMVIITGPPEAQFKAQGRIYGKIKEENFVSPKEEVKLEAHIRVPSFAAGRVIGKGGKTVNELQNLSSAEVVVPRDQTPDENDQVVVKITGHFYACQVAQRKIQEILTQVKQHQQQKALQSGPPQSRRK
UniProt Q9Y4D8: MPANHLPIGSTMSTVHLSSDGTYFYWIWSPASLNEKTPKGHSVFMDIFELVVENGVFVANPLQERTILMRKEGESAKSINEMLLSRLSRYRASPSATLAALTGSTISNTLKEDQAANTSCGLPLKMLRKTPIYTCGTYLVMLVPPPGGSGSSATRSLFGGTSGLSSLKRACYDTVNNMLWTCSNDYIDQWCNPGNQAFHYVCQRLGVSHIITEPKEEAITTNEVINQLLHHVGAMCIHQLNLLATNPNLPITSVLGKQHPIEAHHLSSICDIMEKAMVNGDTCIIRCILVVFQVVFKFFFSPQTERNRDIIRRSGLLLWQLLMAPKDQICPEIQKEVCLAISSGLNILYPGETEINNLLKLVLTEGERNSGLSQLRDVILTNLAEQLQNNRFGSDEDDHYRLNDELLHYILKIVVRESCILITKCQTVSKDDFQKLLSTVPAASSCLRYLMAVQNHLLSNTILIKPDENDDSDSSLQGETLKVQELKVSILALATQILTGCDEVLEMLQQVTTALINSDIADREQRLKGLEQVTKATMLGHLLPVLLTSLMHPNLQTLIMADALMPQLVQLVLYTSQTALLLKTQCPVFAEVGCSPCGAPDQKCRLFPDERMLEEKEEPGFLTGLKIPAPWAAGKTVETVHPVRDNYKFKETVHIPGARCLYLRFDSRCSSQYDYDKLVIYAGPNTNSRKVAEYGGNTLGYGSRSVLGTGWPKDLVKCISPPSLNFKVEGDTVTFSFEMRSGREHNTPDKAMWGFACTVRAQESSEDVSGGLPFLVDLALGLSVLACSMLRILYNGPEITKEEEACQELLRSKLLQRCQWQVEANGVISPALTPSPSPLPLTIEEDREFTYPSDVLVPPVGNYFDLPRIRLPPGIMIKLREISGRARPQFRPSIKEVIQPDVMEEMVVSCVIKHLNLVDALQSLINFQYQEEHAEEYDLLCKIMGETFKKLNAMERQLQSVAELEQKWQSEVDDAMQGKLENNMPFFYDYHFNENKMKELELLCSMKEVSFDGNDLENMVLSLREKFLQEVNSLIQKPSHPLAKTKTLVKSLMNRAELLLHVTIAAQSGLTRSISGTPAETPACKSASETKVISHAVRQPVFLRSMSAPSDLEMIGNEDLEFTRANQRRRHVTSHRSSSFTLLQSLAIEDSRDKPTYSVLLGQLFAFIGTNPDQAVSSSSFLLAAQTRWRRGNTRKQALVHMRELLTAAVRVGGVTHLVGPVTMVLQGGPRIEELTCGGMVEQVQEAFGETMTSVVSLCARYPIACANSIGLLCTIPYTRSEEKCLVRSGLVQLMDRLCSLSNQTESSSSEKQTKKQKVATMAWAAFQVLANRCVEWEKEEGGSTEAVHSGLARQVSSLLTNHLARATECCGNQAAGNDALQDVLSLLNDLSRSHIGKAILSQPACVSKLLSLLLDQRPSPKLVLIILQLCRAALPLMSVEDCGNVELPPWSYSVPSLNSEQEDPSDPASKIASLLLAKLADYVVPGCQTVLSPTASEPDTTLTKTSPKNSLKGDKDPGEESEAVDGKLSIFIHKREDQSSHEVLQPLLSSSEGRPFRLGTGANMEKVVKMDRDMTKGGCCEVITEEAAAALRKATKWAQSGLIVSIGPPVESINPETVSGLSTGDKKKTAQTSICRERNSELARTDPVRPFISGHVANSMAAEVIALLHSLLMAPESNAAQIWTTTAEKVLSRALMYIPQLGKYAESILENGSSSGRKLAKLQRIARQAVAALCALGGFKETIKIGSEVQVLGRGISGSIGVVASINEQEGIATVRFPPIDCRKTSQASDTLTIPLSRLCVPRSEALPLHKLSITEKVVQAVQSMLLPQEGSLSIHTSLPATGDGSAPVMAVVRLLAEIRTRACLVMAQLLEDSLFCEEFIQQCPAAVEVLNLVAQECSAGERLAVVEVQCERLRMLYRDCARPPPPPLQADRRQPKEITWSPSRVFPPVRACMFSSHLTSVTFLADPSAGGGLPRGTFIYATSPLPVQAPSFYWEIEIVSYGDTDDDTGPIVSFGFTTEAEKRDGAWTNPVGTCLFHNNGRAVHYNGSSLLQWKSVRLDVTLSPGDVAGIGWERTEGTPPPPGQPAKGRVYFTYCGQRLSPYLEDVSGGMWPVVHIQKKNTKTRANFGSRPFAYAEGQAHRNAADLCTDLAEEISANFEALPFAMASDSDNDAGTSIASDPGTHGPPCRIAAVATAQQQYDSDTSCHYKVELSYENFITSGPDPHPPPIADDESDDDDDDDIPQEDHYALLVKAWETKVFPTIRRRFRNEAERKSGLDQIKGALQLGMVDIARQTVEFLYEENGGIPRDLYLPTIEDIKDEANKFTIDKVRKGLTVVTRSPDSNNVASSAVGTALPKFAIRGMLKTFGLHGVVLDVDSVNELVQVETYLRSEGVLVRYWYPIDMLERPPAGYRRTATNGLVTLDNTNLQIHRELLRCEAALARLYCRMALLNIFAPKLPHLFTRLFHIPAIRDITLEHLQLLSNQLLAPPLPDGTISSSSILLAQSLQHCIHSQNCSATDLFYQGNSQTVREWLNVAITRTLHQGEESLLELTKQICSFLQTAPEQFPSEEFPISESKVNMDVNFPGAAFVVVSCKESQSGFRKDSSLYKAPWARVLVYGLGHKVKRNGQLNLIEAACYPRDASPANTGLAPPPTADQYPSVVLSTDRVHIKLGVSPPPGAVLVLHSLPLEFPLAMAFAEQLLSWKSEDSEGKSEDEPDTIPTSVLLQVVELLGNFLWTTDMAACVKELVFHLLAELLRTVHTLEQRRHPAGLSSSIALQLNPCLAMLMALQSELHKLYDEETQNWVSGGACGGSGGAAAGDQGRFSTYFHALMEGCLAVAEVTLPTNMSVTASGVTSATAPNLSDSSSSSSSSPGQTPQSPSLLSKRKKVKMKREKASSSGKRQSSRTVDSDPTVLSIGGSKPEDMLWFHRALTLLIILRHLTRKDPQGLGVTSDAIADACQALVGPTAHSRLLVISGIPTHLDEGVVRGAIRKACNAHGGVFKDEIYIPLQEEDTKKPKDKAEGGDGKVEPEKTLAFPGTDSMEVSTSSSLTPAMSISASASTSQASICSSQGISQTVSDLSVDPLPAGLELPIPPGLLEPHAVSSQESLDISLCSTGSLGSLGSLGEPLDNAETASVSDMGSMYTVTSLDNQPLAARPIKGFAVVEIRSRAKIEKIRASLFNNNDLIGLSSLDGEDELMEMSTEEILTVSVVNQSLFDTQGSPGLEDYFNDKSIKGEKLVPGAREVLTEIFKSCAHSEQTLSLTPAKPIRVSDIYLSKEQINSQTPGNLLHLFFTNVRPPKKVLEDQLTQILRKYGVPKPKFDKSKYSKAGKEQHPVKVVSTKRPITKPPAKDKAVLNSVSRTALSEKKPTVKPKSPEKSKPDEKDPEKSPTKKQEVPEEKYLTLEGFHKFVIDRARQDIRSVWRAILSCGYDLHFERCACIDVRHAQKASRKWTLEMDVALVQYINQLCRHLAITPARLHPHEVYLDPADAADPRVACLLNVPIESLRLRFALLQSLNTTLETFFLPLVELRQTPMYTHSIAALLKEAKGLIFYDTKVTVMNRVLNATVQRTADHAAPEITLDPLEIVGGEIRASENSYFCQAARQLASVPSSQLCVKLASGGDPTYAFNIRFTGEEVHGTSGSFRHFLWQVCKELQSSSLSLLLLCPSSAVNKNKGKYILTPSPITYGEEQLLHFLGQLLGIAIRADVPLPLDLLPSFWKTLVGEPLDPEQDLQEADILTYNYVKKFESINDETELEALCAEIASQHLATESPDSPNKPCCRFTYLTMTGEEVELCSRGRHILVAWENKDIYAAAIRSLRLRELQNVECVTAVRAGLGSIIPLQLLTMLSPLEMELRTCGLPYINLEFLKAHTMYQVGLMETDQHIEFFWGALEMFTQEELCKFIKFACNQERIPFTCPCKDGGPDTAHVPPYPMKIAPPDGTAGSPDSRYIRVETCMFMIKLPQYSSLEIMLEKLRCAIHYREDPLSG

Target: IGF2BP3 (insulin-like growth factor 2 mRNA binding protein 3) (human (endogenous in U251 and A172)) (UniProt O00425)
Test: affinity purification with mass spectrometry; co-IP with IGF2BP3 antibody from GBM cell lysate (co-IP buffer with PMSF, magnetic beads, 4 °C for 12 h, 4 washes); eluted proteins identified by mass spectrometry

HECTD4 (from UniProt Q9Y4D8 1-3996) (enzyme)
binding: binds

Results are given in words; binding and its absence hold for the method and conditions named. In cells and extracts the contact can be indirect. A yes stands for co-enrichment or nearness to the bait. Other partners may have been found.
